Experimental data taken from PubChem BioAssay AID342 (DTP/NCI, 2004).
The list shows only some results of the screen, not a fair sample: it gathers tests that were run many times, whatever their T/C, doses with no T/C, and many T/C values between a quarter and a half above the control. Further doses and runs are listed elsewhere. T/C gives the treated animals as a percentage of the vehicle group. Schedules are NCI's codes, read here as Q, the interval in days (D) or hours (H), X, the number of doses. Some entries give survivors of the animals treated and no T/C: the source holds a T/C of zero for them, seemingly a mark for toxic or unscored doses. Counts of survivors are from the toxicity check (mostly the fifth day) where no day follows; animals may have died later. Some entries hold several experiments; the results are listed from low to high. Some schedule codes hold Z or #, which are not explained here.

System: Swiss mice, Sarcoma 180 sc, mean tumor weight T/C
Experiment: NCI In Vivo Anticancer Drug Screen. Data for tumor model Sarcoma 180 (subcutaneous) in Swiss mice
Conditions: T/C endpoint: mean tumor weight, higher T/C = larger tumour; for T/C: evaluated on day 8
Procedure, shortened: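 Transplantable tumors were established in mice, compound was given, then survival or tumor size was recorded. The treated value was divided by the vehicle-control value.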

[1] = dose: 500.0 mg/kg/injection, schedule: Q01DX007 (ip), vehicle: carboxymethylcellulose (CMC)
[2] = dose: 32.0 mg/kg/injection, schedule: Q01DX007 (ip), vehicle: carboxymethylcellulose (CMC)
[3] = dose: 62.5 mg/kg/injection, schedule: Q01DX007 (ip), vehicle: carboxymethylcellulose (CMC)
[4] = dose: 125.0 mg/kg/injection, schedule: Q01DX007 (ip), vehicle: carboxymethylcellulose (CMC)
[5] = dose: 250.0 mg/kg/injection, schedule: Q01DX007 (ip), vehicle: carboxymethylcellulose (CMC)
[6] = dose: 50.0 mg/kg/injection, schedule: Q01DX007 (ip), vehicle: saline
[7] = dose: 100.0 mg/kg/injection, schedule: Q01DX007 (ip), vehicle: saline

O=C(O)C(=O)O.[U]
survivor count (dose: 41.7 mg/kg/injection, schedule: Q01DX007 (ip), vehicle: saline): 3 of 6

O=[n+]1c2c(n([O-])c3ccccc31)-c1cccc3cccc-2c13
survivor count (dose: 62.0 mg/kg/injection, schedule: Q01DX007 (ip), vehicle: carboxymethylcellulose (CMC)): 2 of 6 | survivor count (dose: 210.0 mg/kg/injection, schedule: Q01DX007 (ip), vehicle: carboxymethylcellulose (CMC)): 0 of 6 | survivor count (dose: 315.0 mg/kg/injection, schedule: Q01DX007 (ip), vehicle: carboxymethylcellulose (CMC)): 1 of 6

O=C(O)CCCNC(=O)c1ccc([N+](=O)[O-])cc1
survivor count (dose: 500.0 mg/kg/injection, schedule: Q01DX007 (ip), vehicle: methylcellulose (MC)): 3 of 6

COc1ccccc1NC(=O)CSC(N)=O
survivor count [1]: 3 of 7

CC12CCC3C(CCC4CC=CCC43C)C1CCC2=O (configuration not stated)
T/C (dose: 62.5 mg/kg/injection, schedule: Q01DX007 (sc), vehicle: steroid suspending solution): 129 % of control

Nc1ccc(C(=O)NCCCC(=O)O)cc1
survivor count (dose: 250.0 mg/kg/injection, schedule: Q01DX007 (ip), vehicle: water): 0 of 60

O=C1c2ccccc2C(=O)N1CCF
survivor count (dose: 16.0 mg/kg/injection, schedule: Q01DX007 (ip), vehicle: carboxymethylcellulose (CMC)): 2 of 6 | survivor count [2]: 0 of 6 | survivor count [3]: 0 of 6 | survivor count [4]: 0 of 6 | survivor count [5]: 0 of 6 | survivor count [1]: 0 of 6

CC(C)C(=O)OCC1OC(n2cnc3c(=S)nc(N)[nH]c32)C(OC(=O)C(C)C)C1OC(=O)C(C)C (configuration not stated)
survivor count (dose: 47.0 mg/kg/injection, schedule: Q01DX007 (ip), vehicle: methylcellulose (MC)): 3 of 6

O=c1[nH]cc(C(F)(F)F)c(=O)[nH]1
survivor count (dose: 400.0 mg/kg/injection, schedule: Q01DX007 (ip), vehicle: saline): 3 of 6 | survivor count (dose: 500.0 mg/kg/injection, schedule: Q01DX007 (ip), vehicle: saline): 2 of 6

O=C(O)C(=O)c1ccc(-c2ccccc2)cc1
survivor count [3]: 2 of 6 | survivor count [4]: 2 of 6 | survivor count [5]: 0 of 6 | survivor count [1]: 0 of 6

C[C@H]1C[C@@H]2[C@H](C(=O)C[C@@]3(C)[C@H]2CC[C@]3(O)C(=O)CO)[C@@]2(C)C=CC(=O)C=C12
survivor count (dose: 1109.0 mg/kg/injection, schedule: Q01DX007 (sc), vehicle: steroid suspending solution): 1 of 6

CC1=C(CO)C(=O)O[C@@H]([C@@H](C)[C@H]2CC[C@H]3[C@@H]4C[C@H]5O[C@]56[C@@H](O)C=CC(=O)[C@]6(C)[C@H]4CC[C@]23C)C1
T/C (dose: 10.0 mg/kg/injection, schedule: Q01DX007 (ip), vehicle: carboxymethylcellulose (CMC)): 128 % of control | survivor count (dose: 22.0 mg/kg/injection, schedule: Q01DX007 (ip), vehicle: saline): 2 of 4 | survivor count (dose: 27.0 mg/kg/injection, schedule: Q01DX007 (ip), vehicle: saline): 2 of 6 | survivor count (dose: 30.0 mg/kg/injection, schedule: Q01DX007 (ip), vehicle: carboxymethylcellulose (CMC)): 0 of 4 and 2 of 4 | survivor count (dose: 30.0 mg/kg/injection, schedule: Q01DX007 (ip), vehicle: saline): 1 of 4 | survivor count (dose: 36.0 mg/kg/injection, schedule: Q01DX007 (ip), vehicle: saline): 0 of 4 | survivor count (dose: 40.0 mg/kg/injection, schedule: Q01DX007 (ip), vehicle: carboxymethylcellulose (CMC)): 0 of 4 and 1 of 4 | survivor count (dose: 40.0 mg/kg/injection, schedule: Q01DX007 (ip), vehicle: saline): 0 of 4 and 1 of 6 | survivor count [6]: 0 of 4

CCOC(=O)C(N)Cc1ccc(N(CCCl)CCCl)cc1 (configuration not stated)
survivor count (dose: 18.8 mg/kg/injection, schedule: Q01DX007 (ip), vehicle: saline): 2 of 6

NC(=O)c1ccccc1Nc1ccc([N+](=O)[O-])cc1[N+](=O)[O-]
survivor count (dose: 150.0 mg/kg/injection, schedule: Q01DX007 (ip), vehicle: carboxymethylcellulose (CMC)): 0 of 6 | survivor count (dose: 300.0 mg/kg/injection, schedule: Q01DX007 (ip), vehicle: carboxymethylcellulose (CMC)): 0 of 6

CC1(C)O[C@@H]2C[C@H]3[C@@H]4CCC5=CC(=O)CC[C@]5(C)[C@@]4(F)[C@@H](O)C[C@]3(C)[C@]2(C(=O)CO)O1
survivor count (dose: 3.3 mg/kg/injection, schedule: Q#A X014 (sc), vehicle: steroid suspending solution): 5 of 8 | survivor count (dose: 5.0 mg/kg/injection, schedule: Q#A X014 (sc), vehicle: steroid suspending solution): 1 of 8 | survivor count (dose: 7.5 mg/kg/injection, schedule: Q#A X014 (sc), vehicle: steroid suspending solution): 1 of 8 | survivor count (dose: 18.0 mg/kg/injection, schedule: Q01DX007 (sc), vehicle: steroid suspending solution): 4 of 7 | survivor count (dose: 200.0 mg/kg/injection, schedule: Q01DX007 (sc), vehicle: steroid suspending solution): 3 of 8 | survivor count (dose: 300.0 mg/kg/injection, schedule: Q01DX007 (sc), vehicle: steroid suspending solution): 2 of 8

CC(=O)Nc1c(Cl)c(Cl)c2c(c1Cl)Cc1cc(F)ccc1-2
survivor count (dose: 250.0 mg/kg/injection, schedule: Q01DX007 (ip), vehicle: saline): 2 of 6 | survivor count (dose: 375.0 mg/kg/injection, schedule: Q#A X014 (ip), vehicle: saline): 3 of 6

CN1CC2CC(C1)c1cccc(=O)n1C2 (configuration not stated)
survivor count (dose: 33.0 mg/kg/injection, schedule: Q01DX007 (ip), vehicle: saline): 0 of 6 | survivor count [6]: 0 of 6 | survivor count (dose: 75.0 mg/kg/injection, schedule: Q01DX007 (ip), vehicle: saline): 0 of 6 | survivor count (dose: 110.0 mg/kg/injection, schedule: Q01DX007 (ip), vehicle: saline): 0 of 6

O=[As]O
T/C (dose: 1.68 mg/kg/injection, schedule: Q01DX007 (ip), vehicle: carboxymethylcellulose (CMC)): 132 % of control | T/C (dose: 6.75 mg/kg/injection, schedule: Q01DX007 (ip), vehicle: carboxymethylcellulose (CMC)): 144 % of control | survivor count (dose: 13.3 mg/kg/injection, schedule: Q01DX007 (ip), vehicle: carboxymethylcellulose (CMC)): 4 of 10 | survivor count (dose: 13.5 mg/kg/injection, schedule: Q01DX007 (ip), vehicle: carboxymethylcellulose (CMC)): 5 of 10

C[C@]12CCC(=O)C=C1[C@@H](F)C[C@@H]1[C@@H]2[C@@H](O)C[C@@]2(C)[C@H]1CC[C@]2(O)C(=O)CO
survivor count (dose: 282.0 mg/kg/injection, schedule: Q01DX007 (sc), vehicle: steroid suspending solution): 1 of 6

C[C@@H](N)[C@@H](O)c1ccccc1
survivor count (dose: 25.0 mg/kg/injection, schedule: Q01DX007 (ip), vehicle: saline): 2 of 6 | survivor count [6]: 0 of 6 | survivor count [7]: 0 of 6

C[C@@H]1C[C@](O)([C@@H](C)Cl)C(=O)O[C@@H]2CCN3CC=C(COC(=O)[C@]1(C)O)[C@H]23
survivor count [6]: 0 of 6 | survivor count [7]: 0 of 6 | survivor count (dose: 200.0 mg/kg/injection, schedule: Q01DX007 (ip), vehicle: saline): 0 of 6

CN(C)Cc1c[nH]c2ccccc12
survivor count [4]: 2 of 6 | survivor count [5]: 0 of 6 | survivor count [1]: 0 of 6

O=C(Nc1ccc(C2=NCCCN2)cc1)c1ccc(NC(=O)c2ccc(C3=NCCCN3)cc2)cc1
survivor count (dose: 4.0 mg/kg/injection, schedule: Q01DX007 (ip), vehicle: carboxymethylcellulose (CMC)): 3 of 6 | survivor count [2]: 0 of 6 | survivor count [3]: 0 of 6 | survivor count [4]: 0 of 6 | survivor count [5]: 0 of 6 | survivor count [1]: 0 of 6

c1ccc2nc3c(nc2c1)[nH]c1ccccc13
survivor count [1]: 3 of 6

Cc1ccccn1
T/C [7]: 129 % of control | survivor count (dose: 600.0 mg/kg/injection, schedule: Q01DX007 (ip), vehicle: saline): 3 of 6

O=C(NCCCCCCCCCCNC(=O)N1CC1)N1CC1
survivor count (dose: 6.0 mg/kg/injection, schedule: Q01DX007 (ip), vehicle: carboxymethylcellulose (CMC)): 3 of 6

CC(=O)OC/N=[N+](/C)[O-]
survivor count (dose: 18.75 mg/kg/injection, schedule: Q01DX007 (ip), vehicle: saline): 0 of 6 | survivor count (dose: 37.5 mg/kg/injection, schedule: Q01DX007 (ip), vehicle: saline): 0 of 6
